Assay [1] concerns the target Epo1CCG (S. cerevisiae). Description: split reporter; SPLIFF as a9, measured at the bud neck from completion of acto-myosin ring contraction until abscission (PCDIII).
The target in assay [2] is Epo1CCG (S. cerevisiae). The assay is described as follows: split reporter; SPLIFF as a9, measured at the cell front during bud site assembly and bud growth (PCDII).
The target of assay [3] is Gps1_(536-758)CRU (S. cerevisiae). The assay is described as follows: split reporter; split-ubiquitin (Split-Ub): CRU and Nub fusions co-expressed in yeast cells, spotted in 10-fold serial dilutions on medium with 1 mg/ml 5-FOA and copper, 30°C; growth = interaction.

No constants are given. Whether binding was seen depends on the method and setting. Binding seen in cells or lysates may run through a third protein. For part of these data: Binding can be weak; no strength is given.

B1: Nub-Boi1 (protein, UniProt P38041 1-980)
chain: MSLEGNTLGKGAKSFPLYIAVNQYSKRMEDELNMKPGDKIKVITDDGEYNDGWYYGRNLRTKEEGLYPAVFTKRIAIEKPENLHKSPTQESGNSGVKYGNLNDSASNIGKVSSHQQENRYTSLKSTMSDIDKALEELRSGSVEQEVSKSPTRVPEVSTPQLQDEQTLIQEKTRNEENTTHDSLFSSTADLNLSSESLKNISKSNISTKSLEPSSESVRQLDLKMAKSWSPEEVTDYFSLVGFDQSTCNKFKEHQVSGKILLELELEHLKELEINSFGIRFQIFKEIRNIKSAIDSSSNKLDADYSTFAFENQAAQLMPAATVNRDEIQQQISSKCNKLSSESSDRKSSSVTTELQRPSSVVVNPNFKLHDPAEQILDMTEVPNLFADKDIFESPGRAPKPPSYPSPVQPPQSPSFNNRYTNNNARFPPQTTYPPKNKNPTVYSNGLIPNSSTSSDNSTGKFKFPAMNGHDSNSRKTTLTSATIPSINTVNTDESLPAISNISSNATSHHPNRNSVVYNNHKRTESGSSFVDLFNRISMLSPVKSSFDEEETKQPSKASRAVFDSARRKSSYGHSRDASLSEMKKHRRNSSILSFFSSKSQSNPTSPTKQTFTIDPAKMTSHSRSQSNSYSHARSQSYSHSRKHSLVTSPLKTSLSPINSKSNIALAHSETPTSSNNKEAVSQPSEGKHKHKHKHKSKHKHKNSSSKDGSSEEKSKKKLFSSTKESFVGSKEFKRSPSELTQKSTKSILPRSNAKKQQTSAFTEGIRSITAKESMQTADCSGWMSKKGTGAMGTWKQRFFTLHGTRLSYFTNTNDEKERGLIDITAHRVLPASDDDRLISLYAASLGKGKYCFKLVPPQPGSKKGLTFTEPRVHYFAVENKSEMKAWLSAIIKATIDIDTSVPVISSYATPTIPLSKAQTLLEEARLQTQLRDAEEEEGRDQFGWDDTQNKRNSNYPIEQDQFETSDYLESSAFEYPGGRL
For the molecule B1, the binding entry with Epo1CCG (S. cerevisiae) [1] was “no binding (only during PCDIII (bud neck))”; with Epo1CCG (S. cerevisiae) [2], “binds”.

B2: Nub-Nba1 (protein, UniProt Q08229 1-501)
chain: MSEEREENGISRATLNTQRLSAMIDSLNNEKDDRLFPSPTTTRTMITEEKADQSDVFKPPSRLLRSPAGDVSLPPGDNRSSMISNYSGIIQEGVEVSYVVKNRQQTQERRTSKDSNSLYSLKEPVSKNELPSLPMLPSEATLTKHLSDNQSTKSNTNADEIVIKPVTNAKPVGRFNSNTSKKVEGRGSLKLLSSPLRQEKVMRSSIGSGNLASESGSSTYNTKFHQSIQEQLEEEEEGNVSDKLSIVSSVIPELYTTTNEAPKAINPIRSETNDYNPTIPPRSKDRPRSRLFIEEGDGEGDLLTEEILPTPVQPGGHYKNSSQISTVSEQKSESYYSAATSMPPEEETYLTRPLPSTPNEDSRVTSNLKRDDTLKAIHDRANHTSTSTNKQDDDMYEDIIEETPKKTKLKKDTKKKLNKKKSVKELRSFDIDTLNQLLSVTKGTLIGSEFAQLGMKIEEKRALERLVDSLSRLTADMVLDPDRYEEGLKRLDKATKALEGF
As to B2, the binding entry in assay [3] was “binds”.

For the origin of these results see article PMC7409549, “A time-resolved interaction analysis of Bem1 reconstructs the flow of Cdc42 during polar growth” (Life Science Alliance, 2020).
